Data as given in patent US20060159681A1.
These are yes or no findings as the source states them, for the method shown. In cells and extracts the contact can be indirect. Some binding calls cover weakened binding; strength is not graded here.

Amino acid sequences for entries named in this document (tags omitted).
UniProt O60260: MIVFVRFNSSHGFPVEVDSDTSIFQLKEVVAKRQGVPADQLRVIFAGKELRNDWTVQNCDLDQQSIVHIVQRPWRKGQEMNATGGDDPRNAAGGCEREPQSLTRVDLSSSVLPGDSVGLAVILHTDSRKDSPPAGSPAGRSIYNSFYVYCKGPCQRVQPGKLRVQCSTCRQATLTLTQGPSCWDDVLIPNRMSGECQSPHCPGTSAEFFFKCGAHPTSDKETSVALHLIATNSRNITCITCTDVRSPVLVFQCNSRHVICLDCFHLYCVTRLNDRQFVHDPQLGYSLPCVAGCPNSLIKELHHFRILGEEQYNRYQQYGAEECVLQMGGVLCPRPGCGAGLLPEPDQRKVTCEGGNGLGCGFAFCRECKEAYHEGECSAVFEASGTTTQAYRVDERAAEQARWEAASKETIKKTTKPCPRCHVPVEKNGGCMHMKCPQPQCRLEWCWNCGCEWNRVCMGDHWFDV
UniProt P0DMV8: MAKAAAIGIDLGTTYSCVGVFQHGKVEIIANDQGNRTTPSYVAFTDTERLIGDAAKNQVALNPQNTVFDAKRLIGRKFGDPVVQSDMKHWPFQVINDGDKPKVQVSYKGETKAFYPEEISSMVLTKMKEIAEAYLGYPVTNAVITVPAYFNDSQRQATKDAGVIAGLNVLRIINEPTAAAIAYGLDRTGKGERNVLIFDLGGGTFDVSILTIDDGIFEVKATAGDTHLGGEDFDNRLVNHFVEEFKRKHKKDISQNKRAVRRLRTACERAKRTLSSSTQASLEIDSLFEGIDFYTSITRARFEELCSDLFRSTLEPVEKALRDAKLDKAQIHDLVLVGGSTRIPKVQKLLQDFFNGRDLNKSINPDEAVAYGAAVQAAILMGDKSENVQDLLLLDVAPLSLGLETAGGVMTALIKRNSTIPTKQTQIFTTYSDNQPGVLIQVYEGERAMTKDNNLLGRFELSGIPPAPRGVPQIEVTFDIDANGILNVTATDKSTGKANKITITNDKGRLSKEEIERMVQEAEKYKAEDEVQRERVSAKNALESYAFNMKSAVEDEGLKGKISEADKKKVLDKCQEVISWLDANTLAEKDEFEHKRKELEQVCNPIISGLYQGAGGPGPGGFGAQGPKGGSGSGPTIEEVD

How the values were obtained:
GFP-parkin (human) = GFP-parkin (human) (UniProt O60260); test: co-immunoprecipitation from HEK293T cells co-transfected with GFP-parkin, FLAG-BAG5 or FLAG-BAG5(DARA), and His-Hsp70
[1] = target: T1, endogenous BAG5 in human brain lysate (human) (UniProt Q9UL15); test: GST pull-down from human brain SNpc lysate
T1 sequence: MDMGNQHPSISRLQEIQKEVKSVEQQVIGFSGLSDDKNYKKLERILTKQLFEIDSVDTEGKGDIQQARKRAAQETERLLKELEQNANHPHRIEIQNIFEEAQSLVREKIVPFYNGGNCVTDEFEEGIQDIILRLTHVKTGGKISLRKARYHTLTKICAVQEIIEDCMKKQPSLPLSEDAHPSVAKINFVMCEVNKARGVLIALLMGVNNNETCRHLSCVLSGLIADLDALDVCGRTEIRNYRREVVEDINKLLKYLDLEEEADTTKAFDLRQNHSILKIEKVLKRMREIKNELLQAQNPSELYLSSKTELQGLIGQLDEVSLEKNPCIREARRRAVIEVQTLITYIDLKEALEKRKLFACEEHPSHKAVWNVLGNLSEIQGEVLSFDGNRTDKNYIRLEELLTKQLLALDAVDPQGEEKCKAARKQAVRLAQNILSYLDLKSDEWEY

His-parkin (human) [2] = target: His-parkin (human) (UniProt O60260); test: in vitro GST pull-down (FIG. 4B)
His-parkin (human) [3] = target: His-parkin (human) (UniProt O60260); test: in vitro GST pull-down with recombinant His-parkin
[4] = target: T1, endogenous BAG5 in human brain lysate (human); test: GST pull-down from human brain SNpc lysate (FIG. 3B)

Row | binding (GFP-parkin (human)) | binding [1] | binding (His-parkin (human) [2]) | binding (His-parkin (human) [3]) | binding [4] | Substance
1 | binds |  |  |  |  | His-Hsp70 (from UniProt P0DMV8 1-641)
2 |  | binds | binds | binds | binds | GST-Hsp70 (from UniProt P0DMV8 1-641)
